This is an account of results in US20030219494A1, “Compositions and methods of using them” (priority 2002, published 2003).

Assay [1] has as its system naïve control non-diabetic DA rats. As to the kind of experiment: von Frey antinociception after single s.c. opioid in control non-diabetic DA rats. The following applies: morphine s.c. The format is in vivo, rat. How it is done:
(§1) Multiple aliquots of these stock solutions were stored at −20° C. until required. […] Whilst under light anaesthesia with CO2/O2 (50:50%), rats received a single s.c. injection (100 μL) of one opioid or vehicle (saline) into the dorsal region of the base of the neck, using a 250 μL Hamilton syringe.
Mechanical allodynia, the distinguishing feature of diabetic neuropathic pain, was quantified using von Frey filaments. Rats were placed in a metabolic cage (20 cm×20 cm×20 cm) with a metal mesh floor and allowed to acclimatise for approximately 10 min. von Frey filaments were used to quantify the lowest mechanical threshold required for a brisk paw withdrawal reflex. The force was applied to the plantar surface of the left hindpaw and held until the filament buckled slightly. The absence of a response after 5 s prompted application of the next filament of increasing force. Filaments available for use included those that produced a buckling weight of 2, 4, 5, 6, 8, 10, 12, 14, 16, and 18 g. […] Pre-drug (opioid or saline) responses were the mean of three readings taken ≈5 min apart. Assessment of von Frey filament responsiveness was determined at the following times post-opioid (or saline) administration: 15, 30, 45, 60, 90, 120 and 180 min. […]
The mean (±SEM) percentage maximum AUC (% Max AUC) was calculated according to the following formula: [formula] […]

Assay [2] relates to mechanical allodynia in STZ-diabetic DA rats. Kind of assay: von Frey antinociception (relief of mechanical allodynia) after single s.c. opioid in STZ-diabetic DA rats, standard chow or dietary L-arginine. How it is done: Deep and stable anaesthesia was induced with a mixture of ketamine (100 mg/kg, i.p.) and xylazine (16 mg/kg, i.p.) to facilitate insertion of a polyethylene cannula (previously filled with 0.1 ml of sterile saline) into the right common jugular vein. Jugular vein cannulae were tested for correct placement by the withdrawal of a small amount of blood. Diabetes was induced following an acute i.v. injection of streptozotocin (STZ) (85 mg/kg) in 0.1 M citrate buffer (pH 4.5) into the jugular vein.
Naïve non-diabetic rats (n=36) were used in the control experiments. Following STZ administration, benzylpenicillin (60 mg, s.c.) was administered to prevent infection and rats were monitored closely during surgical recovery. Rats were then housed singly or in pairs for period of 3 wks to 38 wks, depending upon the study cohort to which they belonged.
as §1
Mechanical allodynia, the distinguishing feature of diabetic neuropathic pain, was quantified using von Frey filaments. Rats were placed in a metabolic cage (20 cm×20 cm×20 cm) with a metal mesh floor and allowed to acclimatise for approximately 10 min. von Frey filaments were used to quantify the lowest mechanical threshold required for a brisk paw withdrawal reflex. The force was applied to the plantar surface of the left hindpaw and held until the filament buckled slightly. The absence of a response after 5 s prompted application of the next filament of increasing force. Filaments available for use included those that produced a buckling weight of 2, 4, 5, 6, 8, 10, 12, 14, 16, and 18 g. Filaments were calibrated daily before undertaking antinociceptive testing. […] Pre-drug (opioid or saline) responses were the mean of three readings taken ≈5 min apart. Assessment of von Frey filament responsiveness was determined at the following times post-opioid (or saline) administration: 15, 30, 45, 60, 90, 120 and 180 min.
The von Frey scores for individual rats were converted to the Percentage of the Maximum Possible Antinociceptive Effect (% MPE), according to the formula: [formula]
The mean (±SEM) percentage maximum AUC (% Max AUC) was calculated according to the following formula: [formula]
ED50 estimation was facilitated by the inclusion of theoretical maximum and minimum % Max AUC values.
This study comprised three groups of STZ-diabetic DA rats. […] Subsequent doses were chosen to facilitate construction of dose-response curves for the alleviation of tactile allodynia. Antinociception was quantified using calibrated von Frey filaments.

Consider `CN1CC[C@]23c4c5ccc(O)c4O[C@H]2[C@@H](O)C=C[C@H]3[C@H]1C5` [morphine], for which the “% MPE AUC” value in assay [1] was 136.9±16.1 % MPE-h; in assay [2] (morphine 6.1 mg/kg s.c., 14 wks post-STZ, standard chow), 5.2±2.5 % MPE-h; in assay [2] (morphine 6.1 mg/kg s.c., 18 wks post-STZ, 4 wks dietary L-arginine (Group 2)) it was 109.8±28.6 % MPE-h; in assay [2] (morphine 6.1 mg/kg s.c., 22 wks post-STZ, 8 wks dietary L-arginine (Group 2)) it was 149.5±9.5 % MPE-h; in assay [2] (morphine 6.1 mg/kg s.c., 34 wks post-STZ, 4 wks dietary L-arginine (Group 3)), 62.2±15.8 % MPE-h; in assay [2] (morphine 6.1 mg/kg s.c., 38 wks post-STZ, 8 wks dietary L-arginine (Group 3)), 117.1 (±15.4) % MPE-h. In addition, in assay [2] (12 wks post-STZ, standard chow, s.c.), the antinociceptive efficacy/potency entry is “completely abolished”. Besides, the “rightward shift in the dose-response curve versus non-diabetic rats” value in assay [2] (by 3 wks post-STZ) was “≈ 2.5 fold”. For the same compound, the “decrease in potency relative to weight-matched control non-diabetic rats” value in assay [2] (by 9 wks post-STZ) is “≈ 2 fold”. For the same compound, the “increase in extent and duration of antinociception (AUC) versus 14-wk STZ-diabetic rats on standard chow” value in assay [2] (morphine 6.1 mg/kg s.c., 4 wks dietary L-arginine (Group 2)) was found to be 21 fold. The “% MPE AUC (±SEM)” value in assay [2] (morphine 6.1 mg/kg s.c., 9 wks post-STZ, standard chow) is 63.4±7.5 % MPE-h; in assay [2] (morphine 6.1 mg/kg s.c., 16 wks post-STZ, 7 wks dietary L-arginine (Group 1)), 101.9 (±1.9) % MPE-h; in assay [2] (morphine 6.1 mg/kg s.c., 20 wks post-STZ, 11 wks dietary L-arginine (Group 1)), 119.2 (±19.1) % MPE-h. Also, the “% MPE AUC after 8 wks relative to 4 wks of L-arginine (larger by)” value in assay [2] (morphine 6.1 mg/kg s.c., Group 3) was “approximately 190%”.
